Screen size: about 300,000 compounds; about 5,400 (1.8%) were called active. This list was built around the results that the source calls inconclusive (neither active nor inactive); the mix of calls is not that of the screen. The call rests on the fitted dose curve; tested in HEK293 cells. A potency beside an inconclusive call is a rough fit, not a confirmed value.
Assay: qHTS for inhibitors of binding or entry into cells for Marburg Virus
Settings: Marburg virus pseudotyped entry inhibition, cell reporter; series mostly up to 37.8 µM
Potency means the concentration at half of the fitted maximal effect.

Row | SMILES | Potency
1 | CCOCc1c(C(=O)NC2CCCCCC2)oc2ccccc12 | inconclusive: 39.8 µM [inhibitor, partial curve, poor fit]
2 | Cc1sc2ncn(CC(=O)Nc3ccccc3F)c(=O)c2c1-c1ccccc1 | inconclusive: 3.16 µM [inhibitor, partial curve, poor fit]
3 | CCOC(=O)N1CCN(C(=S)Nc2cccc(C)c2C)CC1 | inconclusive: 17.8 µM [activator, single point]
4 | CCN(CC)S(=O)(=O)c1ccc(/C=C/C(=O)Nc2ccccc2N2CCOCC2)cc1 | inconclusive: 10 µM [inhibitor, partial curve]
5 | CCN1CCN(C(=O)CN(c2ccccc2C)S(C)(=O)=O)CC1 | inconclusive: 31.6 µM [activator, single point]
6 | Cc1cccc(C)c1NC(=O)C(C)Sc1n[nH]c(-c2ccncc2)n1 (stereo not drawn) | inactive
7 | COc1ccc(CCn2c(N)cc(=O)[nH]c2=S)cc1OC | inactive
8 | O=C(CCCC(=O)NCCc1ccccc1)NCCc1ccccc1 | inconclusive: 0.398 µM [activator, partial curve, poor fit]
9 | O=C(COC(=O)c1n[nH]c2ccccc12)NC(=O)NC12CC3CC(CC(C3)C1)C2 | inconclusive: 23.1 µM [inhibitor, partial curve, poor fit]
10 | Cn1c(C(=O)OCC(=O)NCc2ccc(F)cc2)cc2occc21 | inactive
11 | CC(C(=O)O)n1nnc2ccccc21 (stereo not drawn) | inactive
12 | COc1ccccc1NC(=O)C1=C(C)N(c2ccccc2)C(=S)NC1c1cccc(C(F)(F)F)c1 (stereo not drawn) | inconclusive: 18.3 µM [inhibitor, partial curve, poor fit]
13 | CC(C)CCNC(=O)COc1ccc(C(=O)c2ccccc2)cc1 | inconclusive: 10 µM [inhibitor, partial curve, poor fit]
14 | O=Cc1cnc2ccccc2c1-c1ccccc1 | inconclusive: 15.8 µM [inhibitor, single point]
15 | CCOC(=O)c1c(C=O)c(C)n(Cc2ccccc2)c1C | inactive
16 | Cc1ccc(C(C)C)c(OCCNC(=O)c2cncc(Br)c2)c1 | inconclusive: 35.5 µM [inhibitor, single point]
17 | CSCCC(NC(=O)c1ccccc1)C(=O)N1CC=C(c2ccccc2)CC1 (stereo not drawn) | inconclusive: 3.16 µM [inhibitor, full curve, poor fit]
18 | CC(C)NC(=O)c1ccc2c(=O)n(C3CCCC3)c(=S)[nH]c2c1 | inactive
19 | NNC(=O)CN1CCCc2ccccc21 | inconclusive: 4.47 µM [activator, single point]
20 | CCCCCCn1c(=O)[nH]c2nc3cc(N)c(C)cc3nc2c1=O | inconclusive: 7.94 µM [activator, partial curve]
21 | COc1ccc(N(CCCN2C(=O)c3cccc4cccc(c34)C2=O)C(=O)c2cccnc2)cc1 | inconclusive: 14.1 µM [inhibitor, single point]
22 | NS(=O)(=O)c1ccc(N/C=C/C(=O)c2ccc(Br)cc2)cc1 | inconclusive: 2.59 µM [activator, partial curve, poor fit]

Shown as tab-separated lines: two of the compounds above.
Row	SMILES	Potency
2	Cc1sc2ncn(CC(=O)Nc3ccccc3F)c(=O)c2c1-c1ccccc1	inconclusive: 3.16 µM [inhibitor, partial curve, poor fit]
3	CCOC(=O)N1CCN(C(=S)Nc2cccc(C)c2C)CC1	inconclusive: 17.8 µM [activator, single point]

The list goes on:

Row | SMILES | Potency
23 | CCSc1nnc(Nc2ccccc2)s1 | inconclusive: 1.78 µM [activator, partial curve]
24 | Cn1ccc(NC(=O)Nc2cccc(C(F)(F)F)c2)n1 | inconclusive: 7.08 µM [inhibitor, full curve, poor fit]
25 | CC(=O)OCC(=O)C1(O)CCC2C3CC(C)C4=CC(=O)CCC4(C)C3C(O)CC21C (stereo not drawn) | inactive
26 | CC(C)(C)N1C(=O)c2ccc(C(=O)Nc3nccs3)cc2C1=O | inactive
27 | Clc1ncc(CN2CCN(c3ccccc3)CC2)s1 | inactive
28 | O=C(NCc1ccccc1Cl)C(=O)NCC1OCCN1S(=O)(=O)c1cccs1 (stereo not drawn) | inactive
29 | c1ccc(Oc2ccc(-c3ccnc4ncnn34)cc2)cc1 | inconclusive: 12.6 µM [inhibitor, partial curve, poor fit]
30 | Cc1cccc(C)c1NC(=O)C1(N2CCN(C(=O)c3ccco3)CC2)CCCCC1 | inconclusive: 5.62 µM [activator, single point]
31 | Cc1ccc(S(=O)(=O)c2cn(Cc3ccccc3F)c3cc4c(cc3c2=O)OCO4)cc1 | inconclusive: 3.55 µM [activator, single point]
32 | CC1=NCC(C)c2c1[nH]c1ccccc21 (stereo not drawn) | inconclusive: 10 µM [inhibitor, partial curve, poor fit]
33 | C=CCN(C(=O)c1csnn1)C(C(=O)NC(C)(C)C)c1ccncc1 (stereo not drawn) | inconclusive: 3.98 µM [inhibitor, single point]
34 | Cc1ccc([N+](=O)[O-])cc1S(=O)(=O)NCCc1c(C)[nH]c2c(C)cccc12 | inactive
35 | COc1ccc(C2OC(=O)CC2C(=O)NCc2ccc(Cl)cc2)cc1OC (stereo not drawn) | inconclusive: 7.94 µM [activator, partial curve, poor fit]
36 | Cc1c(NC(=O)COC(=O)c2cccn2C)c(=O)n(-c2ccccc2)n1C | inconclusive: 10 µM [activator, partial curve, poor fit]
37 | O=C(CN1CCN(Cc2ccccc2)CC1)NCc1ccccc1Cl | inconclusive: 3.55 µM [inhibitor, partial curve, poor fit]
38 | COc1ccc(NS(=O)(=O)c2cc(NC(=O)C3CCCO3)ccc2N2CCCCC2)cc1 (stereo not drawn) | inconclusive: 11.2 µM [inhibitor, partial curve, poor fit]
39 | Cc1ccc(-c2noc(CNc3ccccc3)n2)cc1 | inconclusive: 11.6 µM [activator, partial curve]
40 | COc1ccc(CCNC(=O)C2=C(C)C(=O)OC23CCCCC3)c(OC)c1OC | inactive
41 | C/C(=N\N1CCN(Cc2ccc(Cl)cc2)CC1)c1ccc([N+](=O)[O-])cc1 | inconclusive: 35.5 µM [inhibitor, single point]
42 | N#Cc1ccccc1NC(=O)c1cc2c(=O)n3ccccc3nc2s1 | inconclusive: 11.2 µM [activator, single point]
43 | O=C(CSCc1ccc(Cl)cc1)N1CCCCC1 | inconclusive: 0.112 µM [activator, full curve, poor fit]
